Values quoted from earlier work as cited in patent US20190390161A1, “CULTURE MEDIUM COMPRISING OLIGOPEPTIDES” (Evonik Degussa GmbH, priority 2017, published 2019).
Peptide text beside a SMILES is read from it.

System: trypsin
Settings: Chemical & Pharmaceutical Bulletin 22, 2680 (1974); cited from earlier work

Compound	cleavage (hydrolysis) by trypsin
CC(=O)O.CC(C)C[C@H](NC(=O)[C@@H](N)CCCCN)C(=O)O [Lys-Leu, L-Lysyl-L-leucine acetat] (H-Lys-Leu-OH)	none of these peptides were cleaved
Lys-Lys [reference compound]	none of these peptides were cleaved
